These are yes or no findings as the source states them, for the method shown. In cells and extracts the contact can be indirect. Binding can be weak; no strength is given.
Assays:
[1] = molecular target: in situ tagged TbSlp2-Myc (Trypanosoma brucei) (UniProt Q57VW1); experiment: co-IP; lysate of T. brucei procyclic forms co-expressing the two in situ tagged proteins (10 mM Tris-HCl pH 7.4, 150 mM NaCl, 1 mM EDTA, 1% Triton X-100, 0.5% NP-40); anti-HA or anti-Myc antibody or beads alone, Protein G Dynabeads, 4°C; SDS-PAGE and immunoblot
[2] = molecular target: in situ tagged TbPgs-HA (T. brucei phosphatidylglycerophosphate synthase) (Trypanosoma brucei) (UniProt Q582B0); experiment: as above

Row | binding [1] | binding [2] | Substance
1 | binds |  | in situ tagged TbPgs-HA (T. brucei phosphatidylglycerophosphate synthase) (from UniProt Q582B0) (enzyme)
2 |  | binds | in situ tagged TbSlp2-Myc (from UniProt Q57VW1)

Source: publication PMC8630662
